Values quoted from earlier work as cited in patent US8361760B2, “Microbial production of 3-hydroxyacids from glucose and glycolate” (Massachusetts Institute of Technology, priority 2009, dated 2013).
At least one compound was matched to its structure with a doubt left.

System: CoA-transferase
Design: Relative activity: concentration or dose not given beside the values
Details: CoA-transferase activity with carboxylic acid added

In the case of `CCCC(=O)O` [Butyrate], the Relative activity (relative to None = 100) is listed as 28% and the “Specific Activity” value (None = 34.1 units/mg) is listed as 9.6 units/mg.
